Reference: PMC6770525
These are yes or no findings as the source states them, for the method shown. Binding seen in cells or lysates may run through a third protein. Some entries that bind do so weakly or less than the wild type.

Biological target: T1, caveolin-1 (CAV1) (UniProt P33724)
T1 sequence: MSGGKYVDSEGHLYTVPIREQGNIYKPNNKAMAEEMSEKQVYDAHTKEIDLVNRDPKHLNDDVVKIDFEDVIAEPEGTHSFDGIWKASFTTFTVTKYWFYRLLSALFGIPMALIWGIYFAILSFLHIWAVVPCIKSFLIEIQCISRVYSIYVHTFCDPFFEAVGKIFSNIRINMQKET
Test: co-IP; immunoprecipitates from B16F10(cav-1) cell lysates (20 mM Tris pH 7.4, 150 mM NaCl, 1% NP40, protease and phosphatase inhibitors), protein A/G agarose, 4 °C, western blot; cells with or without CGP42112 (1 µM, 30 min)

binding: binds
B1: non-receptor protein tyrosine phosphatase 1B (PTP1B) (enzyme, UniProt P35821 1-432)
chain: MEMEKEFEEIDKAGNWAAIYQDIRHEASDFPCKVAKLPKNKNRNRYRDVSPFDHSRIKLHQEDNDYINASLIKMEEAQRSYILTQGPLPNTCGHFWEMVWEQKSRGVVMLNRIMEKGSLKCAQYWPQQEEKEMVFDDTGLKLTLISEDVKSYYTVRQLELENLTTKETREILHFHYTTWPDFGVPESPASFLNFLFKVRESGSLSLEHGPIVVHCSAGIGRSGTFCLADTCLLLMDKRKDPSSVDIKKVLLEMRRFRMGLIQTADQLRFSYLAVIEGAKFIMGDSSVQDQWKELSREDLDLPPEHVPPPPRPPKRTLEPHNGKCKELFSSHQWVSEETCGDEDSLAREEGRAQSSAMHSVSSMSPDTEVRRRMVGGGLQSAQASVPTEEELSSTEEEHKAHWPSHWKPFLVNVCMATLLATGAYLCYRVCFH
